# Source: US20250277272A1, “CANCER TREATMENTS AND METHODS OF SELECTING SAME” (The General Hospital Corporation, priority 2016, published 2025)
# At least one structure is not confirmed: it was looked up by name or label, or the drawing left a doubt.
# What was measured:
# A375 cells [1] = assay: MTS cell viability assay, A375 cells with STAG2 knockdown; type: cell-based
# Description: FIGS. 2A-2H. […] FIG. 2A, Viability of A375 cells expressing cither a scrambled control shRNA or a STAG2-specific shRNA (shSTAG2 #23), after treatment with varying concentrations of dabrafenib (Dab) for 3 d. Experiment was performed three times. Data are mean±s.e.m. shSTAG2 #23 sequence: […] TTTG; SEQ ID NO. […] 2) FIG. 2B, Representative Western blot analysis of A375 cells that were treated with dabrafenib for 2 hr. Experiment was performed three times. […] Experiment was performed three times. FIG. 2D, Representative Western blot analysis of SKMEL30 cells that were treated with vemurafenib for 2 hr. […] Experiment was performed 3 times. Data are mean±s.e.m. […] Experiment was performed three times. […] Experiment was performed three times. […] Experiment was performed three times.
# Experiment was performed 3 times. Data are mean±s.e.m. […] Experiment was performed three times. […] Experiment was performed three times. […] Experiment was performed 3 times. Data are mean±s.e.m. […] Experiment was performed three times. […] Experiment was performed three times. […] Experiment was performed 3 times. […] Experiment was performed 3 times. Data are mean±s.e.m. […] Experiment was performed 3 times.
# [2] = system: NRAS-mutant SKMEL30, SKMEL103 and 501MEL melanoma cells; assay: Trametinib response of NRAS-mutant melanoma cells depleted of STAG2 (ERK phosphorylation, cell viability); type: cell-based; conditions: depletion of STAG2 by shRNA
# ERK phosphorylation = assay: Western blot of p-ERK in A375 cells with STAG2 and/or STAG3 knockdown; type: cell-based; conditions: co-depletion of both STAG2 and STAG3 vs knockdown of either alone
# Description: (§1) FIGS. 2A-2H. Knock-down of STAG2 or STAG3 decreases BRAFi sensitivity in BRAF-mutant melanoma cells. FIG. 2A, Viability of A375 cells expressing cither a scrambled control shRNA or a STAG2-specific shRNA (shSTAG2 #23), after treatment with varying concentrations of dabrafenib (Dab) for 3 d. Experiment was performed three times. Data are mean±s.e.m. shSTAG2 #23 sequence: […] TTTG; SEQ ID NO. 1) scramble control shRNA sequence: ([…]: SEQ ID NO. 2) FIG. 2B, Representative Western blot analysis of A375 cells that were treated with dabrafenib for 2 hr. Experiment was performed three times. FIG. 2C, Viability of SKMEL28 cells expressing an inducible STAG2-specific shRNA (shStag2 #60; […]: SEQ ID NO. 3) and cultured in the presence (+Dox) or absence (−Dox) of doxycycline after treatment with varying concentrations of vemurafenib (VEM) for 3 d. Experiment was performed three times. FIG. 2D, Representative Western blot analysis of SKMEL30 cells that were treated with vemurafenib for 2 hr. FIG. 2E, Viability of A375 cells expressing either a scrambled control shRNA or a STAG3-specific shRNA (shSTAG3 #96), after treatment with varying concentrations of dabrafenib for 3 days. Experiment was performed 3 times. Data are mean±s.e.m. […]
# [3] = system: SKMEL28, A375 and M14 cells; assay: Sensitivity of cells with inducible STAG2 shRNA to BRAFi (viability, Western blot); type: cell-based; conditions: inducible expression of an independent shRNA targeting STAG2
# Description: as §1
# [4] = system: BRAF-mutant melanoma cells; assay: BRAFi sensitivity after STAG3 knockdown (cell viability and ERK inhibition); type: cell-based; conditions: knockdown of STAG3
# A375 cells [5] = assay: Cell cycle and annexin V apoptosis analyses by flow cytometry; type: cell-based; conditions: STAG2 or STAG3 knockdown; 1 μM, 72 h
# WM902-BR cells = assay: Ectopic STAG2/STAG3 expression: ERK activity and soft agar colony formation; type: cell-based; conditions: 3 μM
# A375 xenograft tumors = A375 xenograft tumors in nude mice with STAG2 or STAG3 knockdown; type: in vivo
# A375 cells [6] = assay: Restoration of DUSP6 expression in STAG2-knockdown cells: ERK activity and clonogenic growth; type: cell-based; conditions: restoration of DUSP6 expression in cells after STAG2 knockdown
Structure (SMILES),sensitivity of A375 cells to MEKi in combination with dabrafenib (A375 cells [1]; dabrafenib and trametinib together at a ratio of 10:1),sensitivity of A375 cells to MEKi alone (A375 cells [1]; trametinib alone),resistance (inability to inhibit ERK phosphorylation and reduce cell viability) [2],ability to inhibit p-ERK signaling (ERK phosphorylation),sensitivity of cells to BRAFi [3],sensitivity with regard to cell viability and ERK inhibition [4],changes in cell cycle progression in response to treatment (A375 cells [5]),percentages of annexin V+ apoptotic cells in response to treatment (A375 cells [5]),"ability to inhibit ERK activity (WM902-BR cells; expression of Flag-tagged wild-type STAG2 and STAG3, not the STAG2 mutants, 2 h)",ability to reduce colony formation in soft agar assays (WM902-BR cells; expression of Flag-tagged wild-type STAG2 and STAG3),pERK levels in treated tumors (immunohistochemical analysis) (A375 xenograft tumors; STAG2-knockdown tumors vs tumors of the control group),"sensitivity to drug-induced tumor shrinkage (A375 xenograft tumors; tumors with STAG2 knockdown vs control mice, vemurafenib diet, 25 mg/kg daily dose)",ability to inhibit ERK activities and to reduce clonogenic growth (A375 cells [6])
CC(=O)Nc1cccc(-n2c(=O)n(C3CC3)c(=O)c3c(Nc4ccc(I)cc4F)n(C)c(=O)c(C)c32)c1 [trametinib],decreased sensitivity,decreased sensitivity,induced resistance,–,–,–,–,–,–,–,–,–,–
CCCS(=O)(=O)Nc1ccc(F)c(C(=O)c2c[nH]c3ncc(-c4ccc(Cl)cc4)cc23)c1F [vemurafenib],–,–,–,further reduced the ability,decreased the sensitivity,decreased sensitivity,markedly impaired the changes in cell cycle progression,reduced the percentages,increased the ability,increased the ability,higher,significantly decreased sensitivity,enhanced the ability
